Primary screen of a compound library

Data taken from ChEMBL document CHEMBL3988442, “University of Dundee, Small-Polar-MMV Screening Library” (2021).

A: 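Phenotypic screen: M. tuberculosis growth, glucose 7H9 medium, 3 days; the read-out is not stated. Concentration: 50 µM. Higher reads as more growth inhibition (inferred: compounds with an IC50 in retests scored well above the rest). Size under these conditions: about 69,000 compounds, about 760 of them at 50% or above in at least one test.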
B: 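Phenotypic screen: M. tuberculosis growth, cholesterol and DPPC medium, 4 days; the read-out is not stated. Tested at 50 µM. The record gives no direction; compounds that gave an IC50 in retests scored well above the rest, so higher reads as more growth inhibition. Of about 69,000 compounds tested this way, about 370 (0.54%) reached 50% or more in at least one test.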

The filed quantity is “Percent Effect” (%). The controls that fix the scale are not given in the record; negative values are as filed. The compounds are a random part of those screened. Two or more numbers in one place are separate tests of the same structure; such repeats can differ widely.

structure	A	B
c1ccc(OCCNC2CCN(c3ncccn3)CC2)cc1	19.71	-3.892
Cc1ccc(-c2nc(CSCCC(=O)NC(N)=O)co2)c(C)c1	8.628	-15.54
O=C(NCCNc1ncccn1)c1scnc1Cl	-17.36	-22.1
Cc1nnsc1C(=O)N1CCC(c2nc3ccccc3[nH]2)CC1	-17.34 & 3.059	-28.6
Cc1cccc(N(CC(=O)N2CCCCC2)Cc2nc(=O)[nH][nH]2)c1	21.04	18.76
Cc1nc(CNC(=O)NCCc2ccc(N(C)C)cc2)cs1	24.81	-3.098
CC1CN(CC(=O)NC(=O)NCc2ccccc2)CCO1 (stereo not shown)	7.087 & 17.81	2.28
COC(=O)Cn1ccc(=O)c2ccc(OC)cc21	-29.19	-31.17
CC(Cn1cccn1)n1cnc2cccc(F)c2c1=O (stereo not shown)	-18.05	18.44
CCC(O)CN1CCN(C(=O)Cc2nc(-c3ccco3)oc2C)CC1 (stereo not shown)	-33.93	-11.82
O=C(CS(=O)(=O)c1ncccc1Cl)NC1CCCc2ccccc21 (stereo not shown)	-30.72	-26.58
Cc1cc(-c2cnc(NCc3cccnc3)nc2C(C)C)on1	14.28	8.686
CC(C)(C)OC(=O)N1CCC(NCc2cnn(C(C)(C)C)c2)CC1	-5.249	10.3
Nc1ccc(-c2cc(O)cc(CCC3CCCCN3)c2)cn1 (stereo not shown)	8.751	2.353
CCCn1cnnc1CNC(=O)C1COc2cc(OC)ccc2C1 (stereo not shown)	17.68	22.87
[H][C@@]12CCCCN(Cc3cccc(C)c3)[C@]1([H])CN(c1ncccn1)C2	5.345	-19.94
CCOc1cc(CNC(=O)NC2CC=CC2)ccc1OC(F)F	-62.29	8.031
Cc1cc2c(=O)n3c(nc2s1)CCN(C(=O)c1cnn(C)c1C)CC3	29.39	5.109
CCC1CNCc2cc3c(OC)ccc(OC)c3nc2O1 (stereo not shown)	-24.3	16.78 & 2.218
CC(C)Cn1cnc2ccc(NC(=O)CCCn3cccn3)cc2c1=O	17.02	-1.229
COc1ccc(CN)c(OC(F)F)c1.Cl	-20.3	6.924
CCC(CO)N(Cc1cccc(-n2cccn2)c1)Cc1ccccn1 (stereo not shown)	19.97	4.317 & 14.72
[H][C@@]12CN(Cc3cccnc3)C[C@]1([H])OCC(=O)N2	-1.409 & -10.05	-24.11
[H][C@@]12CC[C@H](Oc3cccc(F)c3)[C@]1([H])CN(C(=O)c1cnco1)C2	45.02	1.552
Cc1cccnc1CNCC1(O)CCCN(Cc2ccc(F)cc2)C1=O (stereo not shown)	-0.06649	0.5528
O=C(c1ccc2c(c1)OCCO2)N1CCCC(n2ccnc2)C1 (stereo not shown)	2.797	-13.67
O=C1CCC[C@]2(CN(S(=O)(=O)C3CCCCC3)C[C@H]2c2cccnc2)N1	0.255	13.98
CCCc1nc2c(c(C)c(C)n2Cc2ccncc2)c(N)c1CC	62.75 & 7.657	-33.28
CN(C)CCN1CCC2(CCN(C(=O)c3cccnc3)CC2)C1=O	0.8687	-5.748 & -4.341
Cc1nccn1-c1ccc(CNS(=O)(=O)N2CCC(C)CC2)cn1	-30.4	-20.67
O=C(O)C(F)(F)F.[H][C@@]12COC[C@@H](C(=O)N3CCCCO3)[C@]1([H])CN(C1CCOCC1)C2	-25.24	-27.02
Cn1cnc(S(=O)(=O)N2CCCc3cc(F)cc(F)c32)c1Cl	3.276	-2.171 & -1.082
CCC(C)N(Cc1cccnc1)C(=O)c1ccc(NS(=O)(=O)CC)cc1 (stereo not shown)	-25.05 & -3.331	-8.156
Cc1nn(C)c(C)c1CC(=O)N1CCCC(n2ccnc2C)C1 (stereo not shown)	8.61	-5.869
O=C(O)C(F)(F)F.O=C(O)C(F)(F)F.[H][C@@]12OCCN(C3CCC3)[C@@]1([H])CC[C@@H]2Oc1cccnc1	-11.68	27.27
Cn1cccc1CN1CCC2(CCCN(C(=O)c3cccnc3)C2)CC1.O=C(O)C(F)(F)F.O=C(O)C(F)(F)F	3.261 & 16.06	5.547
CC(NC(=O)c1sccc1C1CC1)c1ccc2c(c1)CC(=O)N2 (stereo not shown)	22.46	10.07
O=C(O)c1cc(-n2cc3c(n2)CCC3)cc(S(=O)(=O)N2CCOCC2)c1	2.781	-7.031
CCOC(=O)C1CN(S(C)(=O)=O)Cc2ncn(CC)c21 (stereo not shown)	-20.23 & -5.331	-5.979
c1cc(-c2noc(-c3cc(C4CC4)[nH]n3)n2)cc(N2CCCCC2)n1	34.59	18.58
Cc1cc(C(=O)N2CCN(c3nc4c(C)cccc4s3)CC2)no1	26.49	13.75
Cc1cnn(CCC(=O)N2CCCN(c3nc(C)cs3)CC2)c1	-16.66	-4.376
O=C(NCCN1CCOCC1)c1n[nH]c(=O)c2ccccc12	-4.464	-13.56
Cc1cnc2n1CCN(C)C21CCN(CC2CC2)CC1.O=C(O)C(F)(F)F.O=C(O)C(F)(F)F.O=C(O)C(F)(F)F	-1.669 & -5.592	5.315
CCOC(=O)NC1CCCN(c2cncc(Br)c2)C1 (stereo not shown)	6.642 & 26.91	33.02
Cc1cccc(NC(=O)C2CSc3ncc(C)c(=O)n3C2)n1 (stereo not shown)	10.99	-2.008
CC(C)n1cc(N2Cc3nc(N4CCOCC4)ncc3C2=O)cn1	-21.08	-41.74
COc1c(CNCc2ccccc2Cn2ccnc2)c(C)nn1C	-3.88 & -1.666	-4.774
COCCn1nc(C(=O)N(C)Cc2ccc3ccccc3c2)ccc1=O	-8.28	15.97
COCCNC(=O)c1cn(C(C)(C)C)c2ncccc12	25.81	-16.5
Cn1ncc2c(N3CCS(=O)(=O)CC3)nc(C3CCCC3)nc21	-5.867 & -15.11	-29.84
CNc1nc(CNC(=O)Nc2cccc(OC)c2)cs1	-4.986	-2.214
Cc1nccc(N[C@H]2CN(CCC(=O)NC3CCCC3)C[C@@H]2C2CC2)n1	-10.56	-15.94
CCc1nc(C)c([C@H]2CN(C)C[C@@H]2C(=O)Nc2cccc3cn[nH]c23)[nH]1	9.896	-20.47
CN(C)C(=O)CCN1CC(c2ccccc2)(c2ccccc2)CCC1=O	7.632	-19.84
CCCc1nnc(NCCc2noc(C3CCCC3)n2)o1	-29.03	-6.547
CCC(C)(C)NC(=O)Cn1cc(C(N)=O)c(-c2ccccc2)n1	-14.62	-11.61
CNS(=O)(=O)c1ccc(C(=O)N2CCCC2c2ccccc2)o1 (stereo not shown)	-7.465	-4.279
CN(C)CCn1c2c(ccc1=O)CC(NC(=O)NC1CCCC1)CC2.O=C(O)C(F)(F)F (stereo not shown)	-15.79	6.805
O=C(O)c1ccc(CCNC(=O)C2(O)Cc3ccccc3C2)cc1	20.29	1.307 & -135.9
COc1ccc(NC(=O)CCC2CCCN(S(=O)(=O)C3CC3)C2)cc1Cl (stereo not shown)	25.01	23.7
CCc1nnc(CNC(=O)CCC2CCCCN2C)s1 (stereo not shown)	-38.48	-1.282
Cc1nnc(N2CCOC(Cn3cccn3)C2)c(C#N)c1C (stereo not shown)	-28.12	-9.875
CCc1ccc(C(=O)NCc2cccc(S(=O)(=O)NC)c2)o1	3.138	2.955
COc1ccnc(CN2CCCC(CCc3ccc(F)cc3)C2)c1OC (stereo not shown)	67.17 & 55.65	48.89
Cc1ccccc1CN(C)C(=O)CN1CCOC(Cn2cccn2)C1 (stereo not shown)	5.677	-3.333
CCc1nc(CN2CCCN(C(=O)C(CC)OC)CC2)cs1 (stereo not shown)	-29.46	-15.62
CS(=O)(=O)NCCC1CCCCN1C(=O)NCc1ccccn1 (stereo not shown)	14.25 & 0.8853	9.94
Cc1cc(-c2cnc(N3CCCC3)nc2C(C)C)on1	-1.783	-1.895 & 28.58
Cc1c(C(=O)N2C[C@@H](CN(C)CCO)[C@@H](CO)C2)sc2ccccc12	-3.874	-12.09